Measured values reported in paper PMC9008429, “Identification of a New Cholesterol‐Binding Site within the IFN‐γ Receptor that is Required for Signal Transduction” (Advanced Science, 2022).

Biological target: T1, Flag‐LpIA‐IFN‐γR1WT (human) (UniProt P15260)
T1 sequence: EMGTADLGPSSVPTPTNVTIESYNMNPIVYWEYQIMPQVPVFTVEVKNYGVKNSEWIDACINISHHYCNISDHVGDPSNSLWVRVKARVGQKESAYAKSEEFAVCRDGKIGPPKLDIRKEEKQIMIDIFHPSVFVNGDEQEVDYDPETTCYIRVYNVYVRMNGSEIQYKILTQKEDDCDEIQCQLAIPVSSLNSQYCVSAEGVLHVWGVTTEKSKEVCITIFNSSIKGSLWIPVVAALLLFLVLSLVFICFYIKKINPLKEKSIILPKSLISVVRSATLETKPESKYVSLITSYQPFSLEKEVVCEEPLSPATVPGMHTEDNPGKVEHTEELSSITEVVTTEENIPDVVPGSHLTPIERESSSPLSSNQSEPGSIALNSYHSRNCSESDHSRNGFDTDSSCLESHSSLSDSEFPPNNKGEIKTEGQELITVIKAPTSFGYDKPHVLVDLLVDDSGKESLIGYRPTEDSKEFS
Assay: proximity labelling; ID-PRIME on the surface of living HEK cells co-transfected with the bait Flag-LplA-IFN-γR1 and the prey HA-LAP2-IFN-γR2 (wild type or mutant); pAz + ATP, 37 °C, then DBCO-Cy3 click chemistry, pAz signal normalised on anti-HA signal; cells untreated or stimulated with IFN-γ (1000 U/mL, 5 min); also cells treated with zaragozic acid (15 µM, 24 h)

binding: binds
B1: HA‐LAP2‐IFN‐γR2WT (receptor, UniProt P38484 22-337)
chain: APPDPLSQLPAPQHPKIRLYNAEQVLSWEPVALSNSTRPVVYQVQFKYTDSKWFTADIMSIGVNCTQITATECDFTAASPSAGFPMDFNVTLRLRAELGALHSAWVTMPWFQHYRNVTVGPPENIEVTPGEGSLIIRFSSPFDIADTSTAFFCYYVHYWEKGGIQQVKGPFRSNSISLDNLKPSRVYCLQVQAQLLWNKSNIFRVGHLSNISCYETMADASTELQQVILISVGTFSLLSVLAGACFFLVLKYRGLIKYWFHTPPSIPLQIEEYLKDPTQPILEALDKDSSPKDDVWDSVSIISFPEKEQEDVLQTL

These are yes or no findings as the source states them, for the method shown. Binding seen in cells or lysates may run through a third protein. Here binding means that the protein was enriched with, or labelled near, the bait; the list need not be complete. Sequences can lack the tags named with a protein.
